From patent publication US20060147914A1 (Johns Hopkins, published 2006) come the findings set out here.

Protein sequences, listed by entry. Tags and fused reporters are not part of them. Residues count along the entry.
UniProt Q9QX01: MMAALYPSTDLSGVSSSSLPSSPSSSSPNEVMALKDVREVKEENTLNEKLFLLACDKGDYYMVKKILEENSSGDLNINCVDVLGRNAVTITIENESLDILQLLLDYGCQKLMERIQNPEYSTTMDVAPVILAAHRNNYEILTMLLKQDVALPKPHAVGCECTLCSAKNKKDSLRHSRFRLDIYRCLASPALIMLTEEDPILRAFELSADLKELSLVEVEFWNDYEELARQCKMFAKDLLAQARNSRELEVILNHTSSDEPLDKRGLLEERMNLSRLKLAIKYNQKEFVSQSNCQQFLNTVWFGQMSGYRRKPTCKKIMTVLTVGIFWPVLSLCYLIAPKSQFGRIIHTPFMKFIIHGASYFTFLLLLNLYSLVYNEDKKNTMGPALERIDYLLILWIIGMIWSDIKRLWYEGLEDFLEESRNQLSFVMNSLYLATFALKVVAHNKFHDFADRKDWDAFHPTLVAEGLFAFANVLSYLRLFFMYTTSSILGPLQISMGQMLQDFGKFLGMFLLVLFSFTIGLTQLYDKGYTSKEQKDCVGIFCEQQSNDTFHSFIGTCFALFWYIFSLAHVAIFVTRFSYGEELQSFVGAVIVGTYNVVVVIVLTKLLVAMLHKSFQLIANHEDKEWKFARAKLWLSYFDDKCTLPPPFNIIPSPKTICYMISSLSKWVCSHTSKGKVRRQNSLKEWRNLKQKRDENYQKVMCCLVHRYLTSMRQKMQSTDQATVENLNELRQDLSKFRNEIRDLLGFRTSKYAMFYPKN
UniProt P31424, residues 21-1203: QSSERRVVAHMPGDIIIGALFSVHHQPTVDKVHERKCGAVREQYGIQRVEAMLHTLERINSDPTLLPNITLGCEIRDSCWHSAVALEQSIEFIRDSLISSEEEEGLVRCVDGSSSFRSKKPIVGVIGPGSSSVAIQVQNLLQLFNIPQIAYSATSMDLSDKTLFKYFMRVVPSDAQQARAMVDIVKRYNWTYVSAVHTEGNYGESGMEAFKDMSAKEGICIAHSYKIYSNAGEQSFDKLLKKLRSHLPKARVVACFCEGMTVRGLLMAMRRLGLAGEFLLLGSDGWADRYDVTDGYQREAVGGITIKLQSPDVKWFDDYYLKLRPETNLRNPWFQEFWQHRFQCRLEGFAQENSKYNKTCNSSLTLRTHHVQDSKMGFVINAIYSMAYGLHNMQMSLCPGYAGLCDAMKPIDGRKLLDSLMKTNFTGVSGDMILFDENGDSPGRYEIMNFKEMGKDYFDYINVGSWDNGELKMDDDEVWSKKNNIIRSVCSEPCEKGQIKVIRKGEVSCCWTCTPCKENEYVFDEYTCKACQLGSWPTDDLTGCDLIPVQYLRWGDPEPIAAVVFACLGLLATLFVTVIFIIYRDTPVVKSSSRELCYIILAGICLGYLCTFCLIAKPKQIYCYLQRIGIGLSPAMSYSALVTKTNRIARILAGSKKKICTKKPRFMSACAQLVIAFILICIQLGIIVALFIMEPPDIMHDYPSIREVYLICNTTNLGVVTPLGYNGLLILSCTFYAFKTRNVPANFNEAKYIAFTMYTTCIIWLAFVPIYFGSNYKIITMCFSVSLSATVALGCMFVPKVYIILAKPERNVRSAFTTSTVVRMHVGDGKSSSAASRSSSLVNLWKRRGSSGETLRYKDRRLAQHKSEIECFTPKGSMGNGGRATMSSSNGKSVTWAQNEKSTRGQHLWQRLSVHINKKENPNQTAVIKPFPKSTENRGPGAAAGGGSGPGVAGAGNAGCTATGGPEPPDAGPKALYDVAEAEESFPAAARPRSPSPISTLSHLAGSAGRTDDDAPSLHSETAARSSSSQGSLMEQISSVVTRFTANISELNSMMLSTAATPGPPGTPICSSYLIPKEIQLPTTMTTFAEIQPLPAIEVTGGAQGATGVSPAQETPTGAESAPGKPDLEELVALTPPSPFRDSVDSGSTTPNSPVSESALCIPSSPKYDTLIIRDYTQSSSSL
UniProt P23385, residues 19-1199: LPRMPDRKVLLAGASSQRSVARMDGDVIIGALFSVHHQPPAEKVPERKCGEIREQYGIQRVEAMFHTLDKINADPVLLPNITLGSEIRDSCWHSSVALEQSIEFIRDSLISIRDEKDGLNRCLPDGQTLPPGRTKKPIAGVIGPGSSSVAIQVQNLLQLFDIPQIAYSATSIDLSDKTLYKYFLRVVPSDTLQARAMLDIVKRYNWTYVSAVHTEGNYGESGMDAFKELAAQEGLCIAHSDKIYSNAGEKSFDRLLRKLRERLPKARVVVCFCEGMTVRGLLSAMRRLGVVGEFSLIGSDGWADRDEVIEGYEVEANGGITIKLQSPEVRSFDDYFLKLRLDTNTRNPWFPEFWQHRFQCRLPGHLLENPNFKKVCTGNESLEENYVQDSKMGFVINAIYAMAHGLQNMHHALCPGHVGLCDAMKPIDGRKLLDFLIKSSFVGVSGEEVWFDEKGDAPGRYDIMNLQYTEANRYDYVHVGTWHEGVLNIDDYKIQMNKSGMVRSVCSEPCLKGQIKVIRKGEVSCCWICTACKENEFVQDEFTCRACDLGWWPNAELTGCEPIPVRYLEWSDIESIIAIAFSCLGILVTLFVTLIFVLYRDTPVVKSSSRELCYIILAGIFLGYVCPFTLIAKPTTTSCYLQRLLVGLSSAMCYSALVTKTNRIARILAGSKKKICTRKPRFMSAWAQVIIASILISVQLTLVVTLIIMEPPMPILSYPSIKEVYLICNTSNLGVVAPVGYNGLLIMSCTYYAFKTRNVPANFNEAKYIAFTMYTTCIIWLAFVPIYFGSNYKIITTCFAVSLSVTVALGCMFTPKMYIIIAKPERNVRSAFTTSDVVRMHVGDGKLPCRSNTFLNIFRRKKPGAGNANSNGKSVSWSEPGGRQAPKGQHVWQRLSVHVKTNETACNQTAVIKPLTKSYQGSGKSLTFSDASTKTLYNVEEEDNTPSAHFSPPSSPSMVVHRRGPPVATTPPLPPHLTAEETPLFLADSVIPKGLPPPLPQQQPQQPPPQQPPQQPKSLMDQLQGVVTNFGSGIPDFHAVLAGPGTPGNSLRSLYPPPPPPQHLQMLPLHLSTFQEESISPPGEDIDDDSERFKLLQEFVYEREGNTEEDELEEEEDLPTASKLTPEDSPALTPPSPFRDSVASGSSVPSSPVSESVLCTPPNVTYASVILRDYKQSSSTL

No constants are given. Whether binding was seen depends on the method and setting. Binding seen in cells or lysates may run through a third protein. Some results given as binding are weak or reduced against the parent protein; the word gives no strength.

Assay [1] deals with native TrpC1 from adult rat brain lysates (rat) (UniProt Q9QX01). The assay is described as follows: co-immunoprecipitation from rat brain.
The target is the same in assay [2]. The assay is described as follows: co-immunoprecipitation from rat brain lysate.
In assay [3] the target is native mGluR5 in detergent extracts of rat hippocampus (rat) (UniProt P31424). The assay is described as follows: co-immunoprecipitation from rat hippocampus extract.
Assay [4] addresses native mGluR1 from rat cerebellum (rat) (UniProt P23385). The assay is described as follows: co-precipitation from cerebellum of rats injected with 10 mg/kg FK-506 or vehicle.
Assay [5] shares this target. The assay is described as follows: co-precipitation from cerebellum of rats injected with FK-506.
Assay [6] deals with native TrpC1 from adult rat brain lysates (rat) (UniProt Q9QX01). The assay is described as follows: co-immunoprecipitation from rat cerebellum lysate.

B1: native Homer 1 from adult rat forebrain / hippocampus (protein, UniProt Q9Z214 2-366, looked up)
chain: GEQPIFSTRAHVFQIDPNTKKNWVPTSKHAVTVSYFYDSTRNVYRIISLDGSKAIINSTITPNMTFTKTSQKFGQWADSRANTVYGLGFSSEHHLSKFAEKFQEFKEAARLAKEKSQEKMELTSTPSQESAGGDLQSPLTPESINGTDDERTPDVTQNSEPRAEPAQNALPFSHSAGDRTQGLSHASSAISKHWEAELATLKGNNAKLTAALLESTANVKQWKQQLAAYQEEAERLHKRVTELECVSSQANAVHSHKTELSQTVQELEETLKVKEEEIERLKQEIDNARELQEQRDSLTQKLQEVEIRNKDLEGQLSELEQRLEKSQSEQDAFRSNLKTLLEILDGKIFELTELRDNLAKLLECS
On to B1, for which the binding entry in assay [1] and in assay [2] was “binds” in each case.

B2: native Homer from rat hippocampus (protein)
chain: GEQPIFSTRAHVFQIDPNTKKNWVPTSKHAVTVSYFYDSTRNVYRIISLDGSKAIINSTITPNMTFTKTSQKFGQWADSRANTVYGLGFSSEHHLSKFAEKFQEFKEAARLAKEKSQEKMELTSTPSQESAGGDLQSPLTPESINGTDDERTPDVTQNSEPRAEPAQNALPFSHRYTFNSAIMIK
With B2, the binding entry in assay [3] is “binds”.

B3: native Homer 3 from adult rat cerebellum (protein, UniProt Q9Z2X5 1-358, looked up)
chain: MSTAREQPIFSTRAHVFQIDPATKRNWIPAGKHALTVSYFYDATRNVYRIISIGGAKAIINSTVTPNMTFTKTSQKFGQWADSRANTVYGLGFGSEQQLTQFAEKFQEVKEAARLAREKSQDGGELTSTALAMASHQVPPSPLVSTNGPEEKLFRSQSADAPGPTERERLKKMLSEGSVGEVQWEAEFFALQDSNQRLAGALREANAAATQWRQQLEVQRAEAEHLRQRVAELEAQVAAEPVRAGEKEATSQSVEQLEARVQTKDQEIQTLKNQSTGPREAPDTAEREETQQQVQDLETRNAELEQQLRAMESNLEEARAERERARAEVGRAAQLLDVRLFELSELREGLARLAEAAP
On to B3, for which the binding entry in assay [4], in assay [1], in assay [5] and in assay [6] was “binds” throughout.
